{"source": "the supplement of paper PMC8728848", "assay_in_all_cases": "glycan array binding signal (z-score within array); higher = stronger binding", "settings_in_all_cases": "glycan notation: IUPAC condensed, linker removed", "key": {"[1]": {"molecular_target": "Fuc(a1-2)Gal(b1-4)[Fuc(a1-3)]GlcNAc(b1-2)Man(a1-3)[Fuc(a1-2)Gal(b1-4)[Fuc(a1-3)]GlcNAc(b1-2)Man(a1-6)]Man(b1-4)GlcNAc(b1-4)[Fuc(a1-6)]GlcNAc", "procedure,_shortened": "(§1)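 The binding signal is a Z-score computed within each array and averaged over linkers. Arrays of the same protein sequence at different concentrations or buffers were also averaged together. Data originate from 3228 arrays in the Consortium for Functional Glycomics database, kept only where the protein sequence was available.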"}, "[2]": {"molecular_target": "Fuc(a1-2)Gal(b1-4)[Fuc(a1-3)]GlcNAc(b1-2)[Fuc(a1-2)Gal(b1-4)[Fuc(a1-3)]GlcNAc(b1-4)]Man(a1-3)[Fuc(a1-2)Gal(b1-4)[Fuc(a1-3)]GlcNAc(b1-2)Man(a1-6)]Man(b1-4)GlcNAc(b1-4)GlcNAc", "procedure,_shortened": "as §1"}, "[3]": {"molecular_target": "Fuc(a1-2)Gal(b1-4)[Fuc(a1-3)]GlcNAc(b1-3)Gal(b1-4)[Fuc(a1-3)]GlcNAc", "procedure,_shortened": "as §1"}, "[4]": {"molecular_target": "Fuc(a1-2)Gal(b1-4)[Fuc(a1-3)]GlcNAc(b1-3)Gal(b1-4)[Fuc(a1-3)]GlcNAc(b1-3)Gal(b1-4)[Fuc(a1-3)]GlcNAc", "procedure,_shortened": "as §1"}, "[5]": {"molecular_target": "Fuc(a1-2)Gal(b1-4)[Fuc(a1-3)]GlcNAc(b1-3)GalNAc", "procedure,_shortened": "as §1"}, "[6]": {"molecular_target": "Fuc(a1-2)Gal(b1-4)[Fuc(a1-3)]GlcNAc(b1-3)[Neu5Ac(a2-6)Gal(b1-4)GlcNAc(b1-6)]Gal(b1-4)Glc", "procedure,_shortened": "as §1"}, "[7]": {"molecular_target": "Fuc(a1-2)Gal3S(b1-4)GlcNAc", "procedure,_shortened": "as §1"}, "[8]": {"molecular_target": "Fuc(a1-2)Gal6S(b1-3)GlcNAc", "procedure,_shortened": "as §1"}, "[9]": {"molecular_target": "Fuc(a1-2)Gal6S(b1-3)GlcNAc6S", "procedure,_shortened": "as §1"}, "Fuc(a1-2)Gal6S(b1-4)Glc": {"molecular_target": "Fuc(a1-2)Gal6S(b1-4)Glc", "procedure,_shortened": "as §1"}, "[10]": {"molecular_target": "Fuc(a1-2)Gal6S(b1-4)Glc6S", "procedure,_shortened": "as §1"}, "Fuc(a1-2)[Gal(a1-3)]Gal": {"molecular_target": "Fuc(a1-2)[Gal(a1-3)]Gal", "procedure,_shortened": "as §1"}, "[11]": {"molecular_target": "Fuc(a1-2)[Gal(a1-3)]Gal(b1-3)GalNAc", "procedure,_shortened": "as §1"}, "[12]": {"molecular_target": "Fuc(a1-2)[Gal(a1-3)]Gal(b1-3)GalNAc(b1-3)Gal(a1-4)Gal(b1-4)Glc", "procedure,_shortened": "as §1"}, "[13]": {"molecular_target": "Fuc(a1-2)[Gal(a1-3)]Gal(b1-3)GlcNAc", "procedure,_shortened": "as §1"}, "[14]": {"molecular_target": "Fuc(a1-2)[Gal(a1-3)]Gal(b1-3)GlcNAc(b1-2)Man(a1-3)[Fuc(a1-2)[Gal(a1-3)]Gal(b1-3)GlcNAc(b1-2)Man(a1-6)]Man(b1-4)GlcNAc(b1-4)GlcNAc", "procedure,_shortened": "as §1"}, "[15]": {"molecular_target": "Fuc(a1-2)[Gal(a1-3)]Gal(b1-3)GlcNAc(b1-2)Man(a1-3)[Fuc(a1-2)[Gal(a1-3)]Gal(b1-3)GlcNAc(b1-2)Man(a1-6)]Man(b1-4)GlcNAc(b1-4)[Fuc(a1-6)]GlcNAc", "procedure,_shortened": "as §1"}, "[16]": {"molecular_target": "Fuc(a1-2)[Gal(a1-3)]Gal(b1-3)GlcNAc(b1-3)GalNAc", "procedure,_shortened": "as §1"}, "[17]": {"molecular_target": "Fuc(a1-2)[Gal(a1-3)]Gal(b1-3)GlcNAc(b1-6)GalNAc", "procedure,_shortened": "as §1"}, "[18]": {"molecular_target": "Fuc(a1-2)[Gal(a1-3)]Gal(b1-4)Glc", "procedure,_shortened": "as §1"}, "[19]": {"molecular_target": "Fuc(a1-2)[Gal(a1-3)]Gal(b1-4)GlcNAc", "procedure,_shortened": "as §1"}, "[20]": {"molecular_target": "Fuc(a1-2)[Gal(a1-3)]Gal(b1-4)GlcNAc(b1-2)Man", "procedure,_shortened": "as §1"}, "[21]": {"molecular_target": "Fuc(a1-2)[Gal(a1-3)]Gal(b1-4)GlcNAc(b1-2)Man(a1-3)[Fuc(a1-2)[Gal(a1-3)]Gal(b1-4)GlcNAc(b1-2)Man(a1-6)]Man(b1-4)GlcNAc(b1-4)GlcNAc", "procedure,_shortened": "as §1"}, "[22]": {"molecular_target": "Fuc(a1-2)[Gal(a1-3)]Gal(b1-4)GlcNAc(b1-2)Man(a1-3)[Fuc(a1-2)[Gal(a1-3)]Gal(b1-4)GlcNAc(b1-2)Man(a1-6)]Man(b1-4)GlcNAc(b1-4)[Fuc(a1-6)]GlcNAc", "procedure,_shortened": "as §1"}, "[23]": {"molecular_target": "Fuc(a1-2)[Gal(a1-3)]Gal(b1-4)GlcNAc(b1-3)GalNAc", "procedure,_shortened": "as §1"}, "[24]": {"molecular_target": "Fuc(a1-2)[Gal(a1-3)]Gal(b1-4)GlcNAc(b1-3)[Fuc(a1-2)[Gal(a1-3)]Gal(b1-4)GlcNAc(b1-6)]GalNAc", "procedure,_shortened": "as §1"}, "[25]": {"molecular_target": "Fuc(a1-2)[Gal(a1-3)]Gal(b1-4)GlcNAc(b1-6)GalNAc", "procedure,_shortened": "as §1"}, "[26]": {"molecular_target": "Fuc(a1-2)[Gal(a1-3)]Gal(b1-4)[Fuc(a1-3)]Glc", "procedure,_shortened": "as §1"}, "[27]": {"molecular_target": "Fuc(a1-2)[Gal(a1-3)]Gal(b1-4)[Fuc(a1-3)]GlcNAc", "procedure,_shortened": "as §1"}, "[28]": {"molecular_target": "Fuc(a1-2)[Gal(a1-3)]Gal(b1-4)[Fuc(a1-3)]GlcNAc(b1-3)GalNAc", "procedure,_shortened": "as §1"}, "[29]": {"molecular_target": "Fuc(a1-2)[Gal(a1-4)]Gal(b1-4)GlcNAc", "procedure,_shortened": "as §1"}, "[30]": {"molecular_target": "Fuc(a1-2)[GalNAc(a1-3)]Gal", "procedure,_shortened": "as §1"}, "[31]": {"molecular_target": "Fuc(a1-2)[GalNAc(a1-3)]Gal(b1-3)GalNAc(a1-3)[Fuc(a1-2)]Gal(b1-4)GlcNAc", "procedure,_shortened": "as §1"}, "[32]": {"molecular_target": "Fuc(a1-2)[GalNAc(a1-3)]Gal(b1-3)GalNAc(b1-3)Gal(a1-4)Gal(b1-4)Glc", "procedure,_shortened": "as §1"}, "[33]": {"molecular_target": "Fuc(a1-2)[GalNAc(a1-3)]Gal(b1-3)GlcNAc", "procedure,_shortened": "as §1"}, "[34]": {"molecular_target": "Fuc(a1-2)[GalNAc(a1-3)]Gal(b1-3)GlcNAc(b1-2)Man(a1-3)[Fuc(a1-2)[GalNAc(a1-3)]Gal(b1-3)GlcNAc(b1-2)Man(a1-6)]Man(b1-4)GlcNAc(b1-4)GlcNAc", "procedure,_shortened": "as §1"}, "[35]": {"molecular_target": "Fuc(a1-2)[GalNAc(a1-3)]Gal(b1-3)GlcNAc(b1-2)Man(a1-3)[Fuc(a1-2)[GalNAc(a1-3)]Gal(b1-3)GlcNAc(b1-2)Man(a1-6)]Man(b1-4)GlcNAc(b1-4)[Fuc(a1-6)]GlcNAc", "procedure,_shortened": "as §1"}, "[36]": {"molecular_target": "Fuc(a1-2)[GalNAc(a1-3)]Gal(b1-3)GlcNAc(b1-3)GalNAc", "procedure,_shortened": "as §1"}}, "note": "The list shows a part of the results."}
{"binder": "truncCC1G-10077 (Coprinopsis cinerea) (protein) MHHHHHHHHPLPSPGPGWVLIQNGGTGKFLCSTPSGDIGTADGPETVYDYSVQWRFIQREYTGVYHVVNRATGAYLRQIGTSMPSIGLAEENDDELKDWWMLETYDNSEIGLASIISRWTGNVLDHYGGVSVQALDNNTENSYRSWAIIPARDWLTSFSLVNGQGGLCLAAQYAREETRLSTTANVNDFHAQWVFRKPSGSSGYTIQNKYNNHYVGGTSARWELVVCCNKYFGIRNTSTQKYLAIEDGQVTFQDQDMTDRKQCWELCSGRATDTSGNDYDLIYMDDDLLEVMIPWVGDKQGDLKHYIEKRATKKPPKDKGGWQLPAAGLIKKPKFNDIRQLLQELIEQWEWDVVNEEREQIQTLVSIDEAEARRLLGRRPHPDIVAAYQRSRSSTLFRIDRQGYFNIAGDRYVNIQGQYGDDSYFHIALPVGVRFGREQIRRFLRDSLDRSTSVTITPTTCKPPSGGPDYNRDPDSDGDNSWIKWTIAVVGTSAIKHSEL", "values": [{"measurement": "glycan array binding signal (z-score)", "setting": "[1]", "value": 0.514}, {"measurement": "glycan array binding signal (z-score)", "setting": "[2]", "value": 0.675}, {"measurement": "glycan array binding signal (z-score)", "setting": "[3]", "value": -0.588}, {"measurement": "glycan array binding signal (z-score)", "setting": "[4]", "value": 0.874}, {"measurement": "glycan array binding signal (z-score)", "setting": "[5]", "value": 1.93}, {"measurement": "glycan array binding signal (z-score)", "setting": "[6]", "value": 0.856}, {"measurement": "glycan array binding signal (z-score)", "setting": "[7]", "value": -0.165}, {"measurement": "glycan array binding signal (z-score)", "setting": "[8]", "value": -0.245}, {"measurement": "glycan array binding signal (z-score)", "setting": "[9]", "value": 0.519}, {"measurement": "glycan array binding signal (z-score)", "setting": "Fuc(a1-2)Gal6S(b1-4)Glc", "value": -0.27}, {"measurement": "glycan array binding signal (z-score)", "setting": "[10]", "value": 1.57}, {"measurement": "glycan array binding signal (z-score)", "setting": "Fuc(a1-2)[Gal(a1-3)]Gal", "value": -0.331}, {"measurement": "glycan array binding signal (z-score)", "setting": "[11]", "value": -0.587}, {"measurement": "glycan array binding signal (z-score)", "setting": "[12]", "value": -0.018}, {"measurement": "glycan array binding signal (z-score)", "setting": "[13]", "value": -0.503}, {"measurement": "glycan array binding signal (z-score)", "setting": "[14]", "value": 0.02}, {"measurement": "glycan array binding signal (z-score)", "setting": "[15]", "value": 0.613}, {"measurement": "glycan array binding signal (z-score)", "setting": "[16]", "value": -0.241}, {"measurement": "glycan array binding signal (z-score)", "setting": "[17]", "value": 1.09}, {"measurement": "glycan array binding signal (z-score)", "setting": "[18]", "value": -0.237}, {"measurement": "glycan array binding signal (z-score)", "setting": "[19]", "value": -0.351}, {"measurement": "glycan array binding signal (z-score)", "setting": "[20]", "value": -1.02}, {"measurement": "glycan array binding signal (z-score)", "setting": "[21]", "value": 0.307}, {"measurement": "glycan array binding signal (z-score)", "setting": "[22]", "value": -0.019}, {"measurement": "glycan array binding signal (z-score)", "setting": "[23]", "value": 0.073}, {"measurement": "glycan array binding signal (z-score)", "setting": "[24]", "value": 1.53}, {"measurement": "glycan array binding signal (z-score)", "setting": "[25]", "value": 0.037}, {"measurement": "glycan array binding signal (z-score)", "setting": "[26]", "value": -0.907}, {"measurement": "glycan array binding signal (z-score)", "setting": "[27]", "value": 1.66}, {"measurement": "glycan array binding signal (z-score)", "setting": "[28]", "value": 0.818}, {"measurement": "glycan array binding signal (z-score)", "setting": "[29]", "value": -0.746}, {"measurement": "glycan array binding signal (z-score)", "setting": "[30]", "value": -1.11}, {"measurement": "glycan array binding signal (z-score)", "setting": "[31]", "value": 1.06}, {"measurement": "glycan array binding signal (z-score)", "setting": "[32]", "value": -0.475}, {"measurement": "glycan array binding signal (z-score)", "setting": "[33]", "value": -0.551}, {"measurement": "glycan array binding signal (z-score)", "setting": "[34]", "value": -0.568}, {"measurement": "glycan array binding signal (z-score)", "setting": "[35]", "value": -0.214}, {"measurement": "glycan array binding signal (z-score)", "setting": "[36]", "value": 3.65}]}
